No constants are given. Whether binding was seen depends on the method and setting. Some results given as binding are weak or reduced against the parent protein; the word gives no strength.
Target: human GPRC5D (human) (UniProt Q9NZD1)
Assay: cell ELISA, CHO expressing human GPRC5D

The chains behind the UniProt entries cited, without tags or fusion partners. Where a name states a change or a piece, a line headed by the entry shows the natural chain unless it says otherwise.
UniProt Q9NZD1: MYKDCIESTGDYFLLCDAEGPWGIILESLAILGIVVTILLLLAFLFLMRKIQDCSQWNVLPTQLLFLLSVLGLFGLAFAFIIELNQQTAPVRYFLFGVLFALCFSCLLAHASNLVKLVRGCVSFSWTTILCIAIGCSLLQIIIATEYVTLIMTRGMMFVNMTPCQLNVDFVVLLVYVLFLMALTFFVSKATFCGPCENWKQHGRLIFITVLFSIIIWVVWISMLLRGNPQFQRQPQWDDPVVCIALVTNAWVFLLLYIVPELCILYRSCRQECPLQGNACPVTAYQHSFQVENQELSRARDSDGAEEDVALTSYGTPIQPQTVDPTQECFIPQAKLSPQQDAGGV

binding: binds
B1: 07A04 IgG (antibody, V domains shown)
VH: QVTLKESGPGILQPSHTLSLTCSFSGFSLSTYGMGVNWIRQPSGKGLEWLASIWWNGNTYNNPSLKSRLTVSKDTSNNQAFLKVTSVDTADTATYYCVHTRGIIRGRGLFFDYWGQGVMVTVSS
VL: DVQMTQSPYNLAASPGESVSINCKASKSISKYLAWYQQKPGKANKLLIYDGSTLQSGIPSRFSGSGSGTDFTLTIRSLEPEDFGLYYCQQHNEYPLTFGSGTKLEIKR
